The text below walks through data of the supplement of paper PMC3334620.

Over roughly 33,000 sequences, “E-score (-0.5 to 0.5)” has its median near -0.015; the highest 2% begin near 0.3. Some of the results follow.

The assay deals with T1, Abf1 (UniProt P14164).
T1 sequence: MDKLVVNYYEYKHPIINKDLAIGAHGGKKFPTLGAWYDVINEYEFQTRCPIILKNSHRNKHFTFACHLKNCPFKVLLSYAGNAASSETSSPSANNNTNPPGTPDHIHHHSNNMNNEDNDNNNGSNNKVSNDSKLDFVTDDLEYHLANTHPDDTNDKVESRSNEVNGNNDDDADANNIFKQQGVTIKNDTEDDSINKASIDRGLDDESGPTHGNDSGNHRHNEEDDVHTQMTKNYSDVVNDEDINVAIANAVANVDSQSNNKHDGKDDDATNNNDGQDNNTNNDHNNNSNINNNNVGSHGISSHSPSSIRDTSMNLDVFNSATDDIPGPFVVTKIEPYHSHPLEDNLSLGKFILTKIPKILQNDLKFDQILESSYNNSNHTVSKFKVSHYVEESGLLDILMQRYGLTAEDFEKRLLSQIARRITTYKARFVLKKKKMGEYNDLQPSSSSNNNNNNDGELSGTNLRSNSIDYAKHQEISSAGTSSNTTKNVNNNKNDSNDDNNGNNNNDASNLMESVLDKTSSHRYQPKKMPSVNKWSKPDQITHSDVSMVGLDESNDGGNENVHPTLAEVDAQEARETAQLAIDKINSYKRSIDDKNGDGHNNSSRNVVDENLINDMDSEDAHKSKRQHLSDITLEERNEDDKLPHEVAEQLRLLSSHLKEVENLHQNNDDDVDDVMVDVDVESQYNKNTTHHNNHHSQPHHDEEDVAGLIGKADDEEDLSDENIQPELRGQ
Put plainly: PBM E-score (8-mer binding enrichment) (E-score (-0.5 to 0.5)); higher = stronger / more preferred TF binding. The conditions noted are these: protein concentration: 200 nM; construct: GST-full length. An outline of the steps:
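Yeast transcription factors carrying a GST tag, as full-length proteins or DNA-binding domains, were produced by PURExpress in vitro transcription/translation. About 100-200 nM protein was applied to universal all-10-mer Agilent arrays, double-stranded by primer extension on fresh or once-stripped slides. Bound protein was detected with fluorescent anti-GST, and scans were normalised with masliner. The Universal PBM Analysis Suite gave each ungapped eight-base word, pooled with its reverse complement, an E-score, a modified Wilcoxon-Mann-Whitney statistic.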
In the case of CGAGGTTC, the “PBM E-score” value was -0.0213.

For the sequence AGGTTACC, the “PBM E-score” value worked out at 0.00988. Regarding ATGAAACC, the “PBM E-score” value is -0.052.

With AACCTTTG, the “PBM E-score” value was -0.123. As to GGCCGCCC, the “PBM E-score” value is -0.352. In the case of AAGCGTCA it was 0.0184; in that of GGTTAACC, -0.23. With CGATTCCA the figure was -0.0719; with AACATTCC, -0.0913; with AGTCCCAA, -0.167. Regarding CGGAGTTC, the “PBM E-score” value was -0.0622.

On to AATTGTGA, for which the “PBM E-score” value is 0.0987. In the case of ACGGGATC, the “PBM E-score” value was found to be 0.111. For the sequence TCCACCCA, the “PBM E-score” value was -0.157.

Consider GAGAGTCA, for which the “PBM E-score” value is -0.0659. In the case of TGTGAGAA it was -0.167. In the case of CTAACCCA it was -0.134; in that of CGGCCCCC, -0.209.

In the case of CTTTAGGA, the “PBM E-score” value was -0.192. In the case of TGTTGAAA it was 0.0577; in that of GCACTGAA, -0.274; in that of ATGTAGTA, 0.229. In the case of ATCAGCTC it was -0.0763. In the case of TAAGTCTA it was -0.136. With ACCATCAT, the “PBM E-score” value came out at 0.0107. In the case of GTTAAATA it was 0.0863; in that of ATGAGCTA, 0.0497.

Take AAGCTGTG: the “PBM E-score” value was -0.105. In the case of GGGATTTA it was 0.0783. In the case of CACGTAAC it was -0.0481; in that of AGTATGTG, -0.0696; in that of GCCGCTAC, -0.183.

Take GAACGGCA: the “PBM E-score” value was 0.22. In the case of CAGCACGA it was 0.226; in that of ATGTACAA, 0.0303. In the case of ACGGTACC it was 0.213. CTATGCAA: the “PBM E-score” value was -0.139. For CTCCAGTA, the “PBM E-score” value is -0.0551. On to ACAATATA, for which the “PBM E-score” value came to 0.097.

Regarding TAACCAGA, the “PBM E-score” value is 0.101.

In the case of ACTGCCAT, the “PBM E-score” value was -0.0294. For CGCTCCTC, the “PBM E-score” value is -0.182. GCACATCC: the “PBM E-score” value was -0.178. With ACCCTACG, the “PBM E-score” value was 0.0801. On to AGTCATAC, for which the “PBM E-score” value was -0.0195.

Turning to ACCGGGAT, the “PBM E-score” value is -0.103.

CGTTCCGA: the “PBM E-score” value is 0.124. In the case of CGTACCCC it was 0.0746; in that of ACAAAGAT, 0.0934. For the sequence AGGCTGTA, the “PBM E-score” value stood at 0.0914. With ATCCTCTC the figure was -0.102; with GGGAGGCA, -0.284.

Consider GTCGCAAA, for which the “PBM E-score” value was found to be 0.0278. With AATTCCTA the figure was 0.0961; with CTAGGCAG, -0.163; with ACATTATC, 0.198.

As to CGACCAGC, the “PBM E-score” value was -0.11. As for ACATGGAA, the “PBM E-score” value was -0.00293. With ACACCGGT the figure was -0.131; with GAGTCACA, -0.0473; with CCACAACA, -0.261. With AGTGGGGA the figure was -0.159.

Regarding AAGCTCTC, the “PBM E-score” value was -0.125.

As to TTCCCGAA, the “PBM E-score” value was -0.02. In the case of TCCTACGA it was 0.347; in that of ACGCTATA, -0.097; in that of AGTTACTC, -0.0211. With ATATTTTG the figure was 0.174; with ACTGTGTA, 0.00452; with ATGTCTCA, 0.141. With CCCGTATA the figure was 0.289. For the sequence AAATTGAC, the “PBM E-score” value was determined as 0.0443.

Take CCTTTTAG: the “PBM E-score” value is -0.16. In the case of ATATATAA it was 0.195; in that of ATACAAAA, 0.0848.

For GCACGTAC, the “PBM E-score” value was -0.056. In the case of ACACTTTC it was 0.0546. For ACTCTGCT, the “PBM E-score” value is -0.102.

Turning to CCACACTC, the “PBM E-score” value is -0.0363.

Take ATGCGAGC: the “PBM E-score” value is -0.174.

Turning to CCCCCTCA, the “PBM E-score” value was -0.349. With CATAGGGA, the “PBM E-score” value was -0.043. Turning to GCTGTGTA, the “PBM E-score” value is -0.0689. With CTCTAAGC, the “PBM E-score” value is -0.141.

On to ACAAAGAC, for which the “PBM E-score” value came to 0.0139. With CCGAATAG the figure was -0.0809.
